Reference: publication PMC5778047
Results are given in words; binding and its absence hold for the method and conditions named. In cells and extracts the contact can be indirect. For part of these data: Where a sequence is shown, tags or fusion partners need not be part of it.

Tests used:
Experiment in all cases: pull-down; 10 µg GST-fusion protein pre-incubated with glutathione sepharose beads 16-20 h at 4 °C; lysate of transfected HEK293T cells (50 mM HEPES pH 7.3, 5 mM EDTA, 100 mM NaCl, 1% Triton X-100) added for 16-20 h at 4 °C; three washes; immunoblot with anti-GFP or anti-CIMPR; only the target purified
[1] = molecular target: T1, GST fused with the GAE region of GGA2 (human) (UniProt Q9UJY4)
T1 sequence: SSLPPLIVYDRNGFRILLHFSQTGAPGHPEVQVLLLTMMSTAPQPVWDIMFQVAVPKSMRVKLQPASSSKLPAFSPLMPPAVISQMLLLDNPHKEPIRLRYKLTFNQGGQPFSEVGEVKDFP

[2] = molecular target: T2, GST fused with the GAT region of GGA2 (human) (UniProt Q9UJY4)
T2 sequence: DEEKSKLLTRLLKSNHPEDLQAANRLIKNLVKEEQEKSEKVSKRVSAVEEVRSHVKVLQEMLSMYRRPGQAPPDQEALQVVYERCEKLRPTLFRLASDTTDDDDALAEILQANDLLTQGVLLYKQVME

[3] = molecular target: GST fused with the VHS region of GGA2 (human) (UniProt Q9UJY4)

Measured: binding

GFP-jxt (EGFR juxtamembrane region) (from UniProt P00533) (domain or fragment)
no binding: [1] | [2] | [3]
